The subject of this assay is HCT116. The following applies: 72 h. The method, boiled down: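 For IC50 and maximal efficacy, four-parameter Hill fits were used. Input values were CellTiter-Glo luminescence from HCT116 cells seeded at 250 per well in 1536-well plates, normalized to vehicle (0%) and positive control (-100%). Pattern correction followed normalization.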

Where a name gives a salt, the structure may show the parent alone.

The source of these data is the supplement of paper PMC12137928.

As to `CCC(C)C(C(=O)OCC[N+](C)(CC)CC)c1ccccc1` (centres undefined), the IC50 cell viability is, setting by setting: (ICRF193 0 nM) > 45.8 µM; (ICRF193 200 nM) > 45.8 µM.

For `CN1[C@@H]2CC[C@H]1C[C@@H](OC(=O)C(O)c1ccccc1)C2` (some centres undefined) [Homatropine hydrobromide], the IC50 cell viability is > 45.8 µM (ICRF193 0 nM) and > 45.8 µM (ICRF193 200 nM).
